We go through four molecules from paper PMC3681974.

The chains behind the UniProt entries cited, without tags or fusion partners. Where a name states a change or a piece, a line headed by the entry shows the natural chain unless it says otherwise. Residues count along the entry.
UniProt P17697, residues 20-439: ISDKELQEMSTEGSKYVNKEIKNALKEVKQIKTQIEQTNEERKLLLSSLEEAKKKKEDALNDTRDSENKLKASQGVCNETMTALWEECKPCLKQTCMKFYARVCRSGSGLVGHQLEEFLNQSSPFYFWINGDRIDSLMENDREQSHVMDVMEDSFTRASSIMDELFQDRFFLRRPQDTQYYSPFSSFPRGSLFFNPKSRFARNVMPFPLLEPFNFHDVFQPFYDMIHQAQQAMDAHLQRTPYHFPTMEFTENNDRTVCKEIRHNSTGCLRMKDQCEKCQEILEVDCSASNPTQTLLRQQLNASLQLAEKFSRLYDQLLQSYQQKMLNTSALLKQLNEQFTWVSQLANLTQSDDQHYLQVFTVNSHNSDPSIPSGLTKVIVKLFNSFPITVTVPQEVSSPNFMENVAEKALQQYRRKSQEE
UniProt P81425: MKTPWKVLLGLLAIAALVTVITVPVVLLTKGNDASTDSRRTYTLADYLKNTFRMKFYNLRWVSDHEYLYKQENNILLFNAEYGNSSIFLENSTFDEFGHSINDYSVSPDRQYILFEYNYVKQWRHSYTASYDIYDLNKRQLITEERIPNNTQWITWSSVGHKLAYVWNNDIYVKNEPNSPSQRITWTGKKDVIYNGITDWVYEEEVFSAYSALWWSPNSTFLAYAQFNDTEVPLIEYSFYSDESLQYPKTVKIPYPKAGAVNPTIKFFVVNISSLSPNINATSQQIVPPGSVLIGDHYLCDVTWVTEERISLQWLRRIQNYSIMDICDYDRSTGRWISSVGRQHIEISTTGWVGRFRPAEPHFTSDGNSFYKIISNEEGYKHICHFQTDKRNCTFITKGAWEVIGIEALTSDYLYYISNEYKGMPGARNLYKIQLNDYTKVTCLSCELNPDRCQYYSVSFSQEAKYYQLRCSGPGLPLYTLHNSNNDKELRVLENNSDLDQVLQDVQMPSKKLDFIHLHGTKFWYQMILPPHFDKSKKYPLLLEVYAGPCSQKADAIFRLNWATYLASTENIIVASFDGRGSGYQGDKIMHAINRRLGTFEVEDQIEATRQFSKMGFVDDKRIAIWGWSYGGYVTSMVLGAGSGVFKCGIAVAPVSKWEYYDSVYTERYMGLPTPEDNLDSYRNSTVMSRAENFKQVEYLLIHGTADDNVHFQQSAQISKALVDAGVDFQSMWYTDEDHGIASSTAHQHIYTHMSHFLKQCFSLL
UniProt F1MGS8: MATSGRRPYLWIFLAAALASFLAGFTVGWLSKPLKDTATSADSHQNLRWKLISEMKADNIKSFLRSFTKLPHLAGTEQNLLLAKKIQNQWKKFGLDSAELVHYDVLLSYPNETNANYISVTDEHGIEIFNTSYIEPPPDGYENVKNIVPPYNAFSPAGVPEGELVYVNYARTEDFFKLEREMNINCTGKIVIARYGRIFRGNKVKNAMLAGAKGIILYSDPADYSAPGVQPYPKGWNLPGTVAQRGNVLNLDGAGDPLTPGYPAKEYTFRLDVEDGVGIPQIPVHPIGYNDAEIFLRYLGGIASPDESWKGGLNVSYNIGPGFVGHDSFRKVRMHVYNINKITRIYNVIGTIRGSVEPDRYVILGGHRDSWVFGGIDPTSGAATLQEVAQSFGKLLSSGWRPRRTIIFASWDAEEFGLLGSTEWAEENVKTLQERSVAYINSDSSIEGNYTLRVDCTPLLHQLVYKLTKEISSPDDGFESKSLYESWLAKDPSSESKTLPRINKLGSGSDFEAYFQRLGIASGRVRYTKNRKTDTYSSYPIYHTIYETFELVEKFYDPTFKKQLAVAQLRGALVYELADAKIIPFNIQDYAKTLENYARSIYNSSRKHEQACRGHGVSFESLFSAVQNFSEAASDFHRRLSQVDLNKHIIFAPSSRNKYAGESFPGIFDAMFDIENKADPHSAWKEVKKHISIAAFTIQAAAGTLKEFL

Results are given in words; binding and its absence hold for the method and conditions named. Binding seen in cells or lysates may run through a third protein. These calls come from enrichment with a bait or labelling near it, and not all partners need be listed.

T1: Tetraspanin CD9 (bovine (endogenous in cauda epididymal fluid microvesicles)) (UniProt P30932)
T1 sequence: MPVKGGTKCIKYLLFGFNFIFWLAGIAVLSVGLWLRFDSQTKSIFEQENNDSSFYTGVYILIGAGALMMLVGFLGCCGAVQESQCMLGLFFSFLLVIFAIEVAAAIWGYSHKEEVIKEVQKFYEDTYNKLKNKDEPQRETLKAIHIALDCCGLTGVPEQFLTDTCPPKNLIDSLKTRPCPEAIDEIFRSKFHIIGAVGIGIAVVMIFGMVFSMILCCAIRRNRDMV

B1: ENPP3_BOVIN Ectonucleotide pyrophosphatase/phosphodiesterase family member 3 (protein, UniProt P15396 1-874)
chain: MQSTLNLSTEEPVKRNTVKKYKIICIVLLILLVAVSLALGLVAGLRQQEEQGSCRKKCFDASHRGLEGCRCDVGCKGRGDCCWDFEDTCVQSTQIWTCNKFRCGETRLESSLCSCSDDCLQRKDCCADYKSVCQGETSWVDEDCSTAQQPQCPEGFDLPPVILFSMDGFRAEYLQTWSTLVPNINKLKTCGVHSQYLRPAYPTKTFPNHYTIVTGLYPESHGIIDNNMYDINLNKNFSLSSKEKDNPAWWQGQPIWLTAMYQGLKVGTYFWPGSDVAINGTFPSIYKIYNRSVTYEERIFTLLKWLDLPKAERPDFYTIYVEEPDSQGHNYGPVSAGVIQALQLVDKTFGLLMEGLKQRNLVNCVNIILLADHGMDQTYCDKLEYMADYFSSINFYMFEGPAPRIRTRNIPQDFFTFNSEEIVRNLSCRKPDQHFKPYLSPDLPKRLHFAKNVRIDKVNLLVDRQWQAVRNRAYSYCGGGNHGYDNEFKSMEAIFLAHGPSFKQKTEVEPFDNIEVYNLLCDLLHIQPAPNNGTHGSLNHLLKVPFYEPSHAEELSKFSVCGFTVPLPTDTLGCSCSRLQTNSDLERVNQMLDLTQDEITATEKLNLPFGRPRLIQKNKEPCLLYHREYVSGFDKTLRMPLWSSYTVPKPGDTSPLPPTVPDCLRADVRVAPSESQNCSFSLADKNITHGFLYPPANNRTSNSQYDALITSNLVPMYEAFKTMWNYFHSVLLVKYAMERNGVNVVSGPVFDYDYDGHFDAPDEIADYAVNTSVPIPTHYFVVLTSCKNQSQTPDACTGWLDVLPFVIPHRPTNVESCPENKSESLWVEERFNVHTARVRDVELLTGLDFYQEKAQPVSEILQLKTYLPVFETVI

In this assay the target is T1, Tetraspanin CD9 (bovine (endogenous in cauda epididymal fluid microvesicles)). Description: affinity purification with mass spectrometry; cauda epididymal small membranous vesicles lysed in 1% Brij O10, 10 mM Tris pH 7.4, 150 mM NaCl, 1 mM CaCl2, 1 mM MgCl2, 4°C; anti-CD9 immunoprecipitation on protein G-sepharose, normal mouse IgG as control; specific Coomassie bands of a non-reducing gel identified by LC-MS/MS.
In the case of “CLUS_BOVIN Clusterin (from UniProt P17697 20-439)”, the binding entry is listed as “binds”.
With “DPP4_BOVIN Dipeptidyl peptidase 4/CD26 (from UniProt P81425 1-765)”, the binding entry is “binds”.
The entry for “N-acetylated-alpha-linked acid dipeptidase 2 (predicted protein) (from UniProt F1MGS8)” is “binds”.
B1: the binding entry was “binds”.
